Measured values published in patent publication US20070093442A1.
No constants are given. Whether binding was seen depends on the method and setting. Some binding calls cover weakened binding; strength is not graded here. Where a sequence is shown, tags or fusion partners need not be part of it.

Legend:
myc-tagged Twist (mouse) [1] = biological target: myc-tagged Twist (mouse) (UniProt P26687); assay: non-reducing SDS-PAGE and Western blot of transfected 293 cells (FIG. 8)
myc-tagged Twist (mouse) [2] = biological target: myc-tagged Twist (mouse) (UniProt P26687); assay: non-reducing SDS-PAGE and Western blot of transfected 293T HEK cell extracts
myc-tagged Twist (mouse) [3] = biological target: myc-tagged Twist (mouse) (UniProt P26687); assay: non-reducing SDS-PAGE and Western blot of transfected 293 cells (FIG. 1a)
myc-tagged Twist (mouse) [4] = biological target: myc-tagged Twist (mouse) (UniProt P26687); assay: EMSA on the MCK E box probe with in vitro-translated proteins

Measured: binding

B1: myc-tagged Twist (protein, mouse, UniProt P26687 1-206, looked up, not shown: small tags and cut ends)
chain: MMQDVSSSPVSPADDSLSNSEEEPDRQQPASGKRGARKRRSSRRSAGGSAGPGGATGGGIGGGDEPGSPAQGKRGKKSAGGGGGGGAGGGGGGGGGSSSGGGSPQSYEELQTQRVMANVRERQRTQSLNEAFAALRKIIPTLPSDKLSKIQTLKLAARYIDFLYQVLQSDELDSKMASCSYVAHERLSYAFSVWRMEGAWSMSASH
binds: all assays above
